In PubChem BioAssay AID330 (DTP/NCI, 2004):
The list shows only some results of the screen, not a fair sample: it is rich in T/C values a quarter to a half above the control, in often repeated tests (any T/C) and in doses without a T/C. Further doses and runs are listed elsewhere. T/C is the treated group as % of the vehicle group. Some entries give survivors of the animals treated and no T/C: the source holds a T/C of zero for them, seemingly a mark for toxic or unscored doses. Some doses without a T/C left all or most animals alive at the check, yet need not have been tolerated: survival well below the control is almost never listed, so the zero probably covers shortened survival too. Survivors were counted at the toxicity check, usually on the fifth day, unless a day is given; later deaths do not show. Schedule codes are those of the source, taken here to give the interval after Q, in days (D) or hours (H), and the number of doses after X. Some doses were run more than once; the values are given in rising order. Some schedules carry Z or #; the key to these is not given. For survival time, this PubChem deposit counts one and a half times the control or more as active, and values a quarter to a half above the control carry no call in these data; other NCI protocols may use other cut-offs. Some T/C values are followed by the survivors on the day toxicity was checked, most often the fifth; without a count, all were alive then.

Tested on: P388 leukemia ip, CD2F1 mice, survival T/C
Test: NCI In Vivo Anticancer Drug Screen. Data for tumor model P388 Leukemia (intraperitoneal) in CD2F1 (CDF1) mice
Conditions: T/C endpoint: median survival time, higher T/C = longer survival
[1] = dose: 200.0 mg/kg/injection, schedule: Q01DX005 (ip), vehicle: Klucel (hydroxypropylcellulose) (HPC)
[2] = dose: 50.0 mg/kg/injection, schedule: Q01DX009 (ip), vehicle: saline with Tween-80
[3] = dose: 100.0 mg/kg/injection, schedule: Q01DX009 (ip), vehicle: saline with Tween-80
[4] = dose: 200.0 mg/kg/injection, schedule: Q01DX009 (ip), vehicle: saline with Tween-80
[5] = dose: 50.0 mg/kg/injection, schedule: Q01DX009 (ip), vehicle: saline
[6] = dose: 50.0 mg/kg/injection, schedule: Q01DX005 (ip), vehicle: saline with Tween-80
[7] = dose: 12.5 mg/kg/injection, schedule: Q01DX009 (ip), vehicle: water
[8] = dose: 25.0 mg/kg/injection, schedule: Q01DX009 (ip), vehicle: water
[9] = dose: 100.0 mg/kg/injection, schedule: Q01DX009 (ip), vehicle: saline
[10] = dose: 200.0 mg/kg/injection, schedule: Q01DX009 (ip), vehicle: saline
[11] = dose: 120.0 mg/kg/injection, schedule: Q01DX005 (ip), vehicle: saline with Tween-80
[12] = dose: 240.0 mg/kg/injection, schedule: Q01DX005 (ip), vehicle: saline with Tween-80

SMILES: CC(C)=CCc1cc(O)c(C)cc1O
- survivor count (dose: 100.0 mg/kg/injection, schedule: Q01DX009 (ip), vehicle: distilled water + Tween-80 + alcohol): 0 of 6
- survivor count (dose: 200.0 mg/kg/injection, schedule: Q01DX009 (ip), vehicle: distilled water + Tween-80 + alcohol): 0 of 6

SMILES: O=S(=O)(N/N=C/c1ccccc1)c1ccccc1
- survivor count (dose: 400.0 mg/kg/injection, schedule: Q01DX009 (ip), vehicle: Klucel (hydroxypropylcellulose) (HPC)): 2 of 6

SMILES: COc1cccc(CN2CCN(N)CC2)c1
- survivor count [1]: 2 of 4

SMILES: COC(=O)CCC1=CC(=O)C(OC)=CC1=O
- survivor count [2]: 3 of 6 and 4 of 6
- survivor count [3]: 0 of 6 and 1 of 6
- survivor count [4]: 0 of 6

SMILES: COc1cccc2c1C(=O)c1c(O)c3c(c(O)c1C2=O)C[C@@](O)(C(C)=O)C[C@@H]3OC1CC(NCC(c2ccccc2)c2ccccc2)C(O)C(C)O1 (some centres undefined)
- T/C (dose: 200.0 mg/kg/injection, schedule: Q04DX003 (ip), vehicle: water): 147 % of control

SMILES: ClCC(Br)CBr (centres undefined) (tested in a mixture with another compound)
- survivor count [5]: 2 of 6

SMILES: O=C(c1cccs1)C1NO[N+]([O-])=C1c1cccs1 (centres undefined)
- survivor count [6]: 3 of 6
- survivor count (dose: 100.0 mg/kg/injection, schedule: Q01DX005 (ip), vehicle: saline with Tween-80): 0 of 6
- survivor count (dose: 200.0 mg/kg/injection, schedule: Q01DX005 (ip), vehicle: saline with Tween-80): 0 of 6

SMILES: Cc1[nH]c(=O)nc(Nc2ccc(Cl)cc2)c1C(=O)N1CCN(CCO)CC1
- survivor count (dose: 30.0 mg/kg/injection, schedule: Q01DX005 (ip), vehicle: saline with Tween-80): 6 of 6
- survivor count (dose: 60.0 mg/kg/injection, schedule: Q01DX005 (ip), vehicle: saline with Tween-80): 6 of 6

SMILES: CCOC(=O)Nc1nc2c(SC#N)cc(C)cc2s1
- survivor count (dose: 100.0 mg/kg/injection, schedule: Q01DX009 (ip), vehicle: Klucel (hydroxypropylcellulose) (HPC)): 5 of 6
- survivor count (dose: 200.0 mg/kg/injection, schedule: Q01DX009 (ip), vehicle: Klucel (hydroxypropylcellulose) (HPC)): 0 of 6

SMILES: CC(=O)O.CC(=O)O.[NH-]C(CCC(N)=O)C(=O)O.[NH-]C(CCC(N)=O)C(=O)O.[Ni+2] (centres undefined)
- survivor count [2]: 5 of 6
- survivor count [3]: 0 of 6
- survivor count [4]: 0 of 6

SMILES: O=NNc1ccnc(-c2cc(NN=O)ccn2)c1
- T/C [7]: 134 and 141 % of control
- T/C [8]: 129 and 133 % of control
- T/C (dose: 50.0 mg/kg/injection, schedule: Q01DX009 (ip), vehicle: water): 130 and 132 % of control

SMILES: COc1cc2c(c(OC)c1OC)-c1ccc(OC)c(=O)cc1[C@@H](NC(=O)c1ccccc1)CC2
- T/C (dose: 0.25 mg/kg/injection, schedule: Q01DX009 (ip), vehicle: Klucel (hydroxypropylcellulose) (HPC)): 128 % of control
- T/C (dose: 1.0 mg/kg/injection, schedule: Q01DX009 (ip), vehicle: saline with Tween-80): 143 % of control
- survivor count (dose: 2.0 mg/kg/injection, schedule: Q01DX009 (ip), vehicle: Klucel (hydroxypropylcellulose) (HPC)): 6 of 6
- T/C (dose: 2.5 mg/kg/injection, schedule: Q04DX003 (ip), vehicle: saline with Tween-80): 147 % of control [5 of 6 alive]
- T/C (dose: 3.3 mg/kg/injection, schedule: Q04DX003 (ip), vehicle: saline sonified): 145 % of control
- survivor count (dose: 4.0 mg/kg/injection, schedule: Q01DX009 (ip), vehicle: Klucel (hydroxypropylcellulose) (HPC)): 0 of 6
- survivor count (dose: 5.0 mg/kg/injection, schedule: Q01DX009 (ip), vehicle: distilled water + Tween-80): 0 of 6
- survivor count (dose: 10.0 mg/kg/injection, schedule: Q01DX009 (ip), vehicle: distilled water + Tween-80): 0 of 6
- survivor count (dose: 10.0 mg/kg/injection, schedule: Q04DX003 (ip), vehicle: saline with Tween-80): 3 of 6
- survivor count (dose: 20.0 mg/kg/injection, schedule: Q04DX003 (ip), vehicle: saline with Tween-80): 5 of 6
- survivor count (dose: 40.0 mg/kg/injection, schedule: Q04DX003 (ip), vehicle: saline with Tween-80): 1 of 6
- survivor count (dose: 80.0 mg/kg/injection, schedule: Q04DX003 (ip), vehicle: saline with Tween-80): 0 of 6

SMILES: COc1c(Br)cc(/C=C(/C)[N+](=O)[O-])cc1Br
- survivor count (dose: 200.0 mg/kg/injection, schedule: Q04DX003 (ip), vehicle: saline with Tween-80): 3 of 6

SMILES: Cc1cc(NC(=O)c2ccc(N=Nc3cc(S(=O)(=O)O)c4ccccc4c3O)cc2)ccc1N=Nc1ccc2cc(S(=O)(=O)O)cc(S(=O)(=O)O)c2c1
- T/C [6]: 125 % of control

SMILES: CCCCCCCCCCCC[N+]1([O-])CCCCC1
- survivor count [5]: 6 of 6
- survivor count [9]: 4 of 6
- survivor count [10]: 0 of 6

SMILES: NCC(SSC(CN)C(=O)O)C(=O)O (centres undefined)
- survivor count [9]: 6 of 6
- survivor count [10]: 6 of 6

SMILES: O=[N+]([O-])c1cc(C(Nc2nncs2)Nc2nncs2)ccc1Cl
- T/C [11]: 137 % of control [5 of 6 alive]
- survivor count [11]: 6 of 6
- T/C [12]: 128 % of control

SMILES: Cc1ccc(C)[nH]1
- survivor count (dose: 100.0 mg/kg/injection, schedule: Q01DX001 (ip), vehicle: alcohol): 0 of 6
- survivor count (dose: 200.0 mg/kg/injection, schedule: Q01DX001 (ip), vehicle: alcohol): 0 of 6

SMILES: COc1ccc2nc3ccccc3c(NCCCCCCNc3c4ccccc4nc4ccc(OC)cc34)c2c1
- T/C (dose: 7.5 mg/kg/injection, schedule: Q01DX009 (ip), vehicle: other): 125 % of control
- survivor count (dose: 10.0 mg/kg/injection, schedule: Q01DX009 (ip), vehicle: other): 2 of 4
- survivor count (dose: 10.0 mg/kg/injection, schedule: Q## X009 (ip), vehicle: lactic acid): 2 of 6
- survivor count (dose: 15.0 mg/kg/injection, schedule: Q01DX009 (ip), vehicle: other): 0 of 4
- survivor count (dose: 20.0 mg/kg/injection, schedule: Q01DX009 (ip), vehicle: other): 0 of 4

SMILES: Cc1cc(Oc2ccc(Cl)cc2NC(=O)Nc2cccc(C(F)(F)F)c2)cc(S(=O)(=O)O)c1Cl
- survivor count (dose: 200.0 mg/kg/injection, schedule: Q01DX001 (ip), vehicle: saline with Tween-80): 1 of 6
- survivor count (dose: 400.0 mg/kg/injection, schedule: Q01DX001 (ip), vehicle: saline with Tween-80): 0 of 6

SMILES: C/C=C(\C)C(C)(C#N)Nc1ccccc1 (centres undefined)
- survivor count [3]: 5 of 6
- survivor count (dose: 400.0 mg/kg/injection, schedule: Q01DX009 (ip), vehicle: saline with Tween-80): 6 of 6

SMILES: c1ccc2c(c1)[As]=c1ccccc1=[As]2 (centres undefined)
- T/C (dose: 3.12 mg/kg/injection, schedule: Q01DX009 (ip), vehicle: saline): 139 % of control
- T/C (dose: 6.25 mg/kg/injection, schedule: Q01DX009 (ip), vehicle: saline): 145 % of control
- survivor count (dose: 12.5 mg/kg/injection, schedule: Q01DX009 (ip), vehicle: saline): 6 of 6
- survivor count (dose: 25.0 mg/kg/injection, schedule: Q01DX009 (ip), vehicle: saline): 1 of 6
- survivor count [5]: 0 of 6

SMILES: N#Cc1c2c(c(N3CCCCC3)n3c1nc1ccccc13)CCC2
- survivor count [11]: 6 of 6
- survivor count [12]: 6 of 6

SMILES: O=C1C=CC(=O)C2=C1C1c3ccccc3C2c2ccccc21
- survivor count [1]: 5 of 5

SMILES: O=C(Cc1cccc2c(=O)cc(-c3ccccc3)oc12)OCCN1CCOCC1
- survivor count [10]: 6 of 6

SMILES: O=NNc1ccc2cc3ccc(NN=O)cc3nc2c1
- T/C (dose: 3.12 mg/kg/injection, schedule: Q01DX009 (ip), vehicle: water): 130 and 133 % of control
- T/C (dose: 6.25 mg/kg/injection, schedule: Q01DX009 (ip), vehicle: water): 125 and 134 % of control
- T/C [7]: 125 and 133 % of control
- T/C [8]: 132 % of control
- survivor count (dose: 100.0 mg/kg/injection, schedule: Q01DX009 (ip), vehicle: water): 6 of 6
